# Library screening results

Chains of the proteins cited; added tags and fusions are not shown.
UniProt E9BF75, entry or part of it: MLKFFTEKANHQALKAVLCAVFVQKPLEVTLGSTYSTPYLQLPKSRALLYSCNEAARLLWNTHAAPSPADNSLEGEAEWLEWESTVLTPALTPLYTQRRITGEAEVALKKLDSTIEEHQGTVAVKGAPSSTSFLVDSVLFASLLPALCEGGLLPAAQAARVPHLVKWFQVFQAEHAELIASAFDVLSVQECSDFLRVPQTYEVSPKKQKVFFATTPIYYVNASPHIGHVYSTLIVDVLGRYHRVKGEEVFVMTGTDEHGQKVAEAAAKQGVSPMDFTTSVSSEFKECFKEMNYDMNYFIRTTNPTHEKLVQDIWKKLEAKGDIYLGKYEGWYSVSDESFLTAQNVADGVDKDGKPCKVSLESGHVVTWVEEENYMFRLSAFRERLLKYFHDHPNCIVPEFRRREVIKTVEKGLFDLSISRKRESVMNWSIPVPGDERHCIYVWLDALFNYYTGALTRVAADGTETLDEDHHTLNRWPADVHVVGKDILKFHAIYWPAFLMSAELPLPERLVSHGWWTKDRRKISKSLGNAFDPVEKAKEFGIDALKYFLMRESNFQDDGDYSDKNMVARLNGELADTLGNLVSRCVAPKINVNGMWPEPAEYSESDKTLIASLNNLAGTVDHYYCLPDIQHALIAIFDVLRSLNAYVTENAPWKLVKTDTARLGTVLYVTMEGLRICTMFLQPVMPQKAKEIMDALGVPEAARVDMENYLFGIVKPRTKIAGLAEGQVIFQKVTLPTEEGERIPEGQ

From ChEMBL document CHEMBL3988442, “University of Dundee, Small-Polar-MMV Screening Library” (2021).

Mtb heat-shock: 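Assay on Mycobacterium tuberculosis, filed only as a heat shock assay from Cornell; the read-out is not stated. The concentration is filed as 10 mM, unlikely as a test dose, so the dose is not known. Direction is inferred from retests: higher values go with stronger inhibition. About 69,000 compounds were tested under these conditions; 1.4% (about 930) showed 50% or more at least once.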
Mtb growth Cornell: 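Whole-cell assay for inhibitors of Mycobacterium tuberculosis growth, labelled Cornell in the record; the read-out is not stated. The concentration is filed as 10 mM, unlikely as a test dose, so the dose is not known. Higher means stronger inhibition (inferred from two other growth screens of the library). Size under these conditions: about 53,000 compounds, about 900 of them at 50% or above in at least one test.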
LdMetRS: 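Methionyl-tRNA synthetase (putative), Leishmania donovani (UniProt E9BF75). Primary screen of methionyl-tRNA synthetase; the read-out is not stated. The test concentration is not given. Values are per cent inhibition. Size under these conditions: about 68,000 compounds, about 24 of them at 50% or above in at least one test.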

All values are in %. The controls that fix the scale are not given in the record; negative values are as filed. Compounds were drawn at random from those tested, without regard to their results. A dash means the value is not listed here; it may have been measured.

{"smiles": "CCc1nn(C)c2[nH]nc(NC(=O)c3cccnc3OC)c12", "Mtb heat-shock": 3.933, "Mtb growth Cornell": 17.67, "LdMetRS": 14.37}
{"smiles": "Cc1nc(NC(=O)C(C)S(C)(=O)=O)sc1Cc1ccc(F)cc1", "stereo": "centres unmarked", "Mtb heat-shock": -19.55, "Mtb growth Cornell": -15.68, "LdMetRS": -0.7732}
{"smiles": "Cn1cc(CN2CC[C@H]3O[C@@H](COCc4cccnc4)CC[C@H]32)cn1", "LdMetRS": 15.93}
{"smiles": "Cc1nnc(SCCNC(=O)Cn2cnc3ccccc3c2=O)s1", "Mtb heat-shock": 6.053, "LdMetRS": 14.71}
{"smiles": "CCNS(=O)(=O)c1ccc(C)c(C(=O)N(CCC#N)Cc2ccco2)c1", "Mtb heat-shock": 5.221, "Mtb growth Cornell": -11.26, "LdMetRS": 9.783}
{"smiles": "O=C(c1ccoc1)N1C[C@@H]2CN(c3ncccn3)C[C@@H]2C1", "LdMetRS": -10.28}
{"smiles": "Cn1cc(CCCNC(=O)NC2CCN(CC(F)(F)F)C2=O)cn1", "stereo": "centres unmarked", "Mtb heat-shock": -10.86, "LdMetRS": 12.33}
{"smiles": "Fc1cnc(N2CCN(Cc3ccc(-c4cc[nH]n4)o3)CC2)nc1", "Mtb heat-shock": 7.629, "Mtb growth Cornell": 9.965, "LdMetRS": 6.494}
{"smiles": "COCCC(=O)N1C[C@@H](c2ccc(F)c(F)c2)[C@@]2(CCCC(=O)N2)C1", "Mtb heat-shock": -7.361, "Mtb growth Cornell": 6.71, "LdMetRS": 11.17}
{"smiles": "CCc1nc(C2CCCN2C(=O)CCc2nc(C(C)(C)C)no2)no1", "stereo": "centres unmarked", "Mtb heat-shock": -15.65, "Mtb growth Cornell": -26.27, "LdMetRS": 4.749}
{"smiles": "Cc1ccc(-n2cccn2)cc1S(=O)(=O)N1C[C@@H]2CC[C@H](C1)N(C)C2", "LdMetRS": 3.069}
{"smiles": "[H][C@@]12CN(C(=O)c3ccncc3)C[C@]1([H])OCCN2Cc1csc(C)n1", "Mtb heat-shock": 6.057, "Mtb growth Cornell": -21.74}
{"smiles": "Cc1ccc(-c2cc(C3CCNCC3)nc(C)n2)cc1.Cl", "Mtb heat-shock": -12.8, "Mtb growth Cornell": 9.922}
{"smiles": "Cc1ccc(CN2CCNC(C(=O)NC3CC3)C2)cc1C", "stereo": "centres unmarked", "Mtb heat-shock": -14.65, "Mtb growth Cornell": -16.35, "LdMetRS": 9.045}
{"smiles": "CC1(C)CCC(CC(=O)O)c2ccccc21", "stereo": "centres unmarked", "Mtb heat-shock": -0.7032, "LdMetRS": 14.64}
{"smiles": "CC1CN(Cc2nccn2C)CCN1c1ccc2nncn2n1", "stereo": "centres unmarked", "Mtb heat-shock": -15.38, "Mtb growth Cornell": 3.854, "LdMetRS": 7.692}
{"smiles": "Cc1ccc(C)c(OCCN2CCC(N3CCNC3=O)CC2)c1", "Mtb heat-shock": 17.44, "Mtb growth Cornell": 16.72, "LdMetRS": 10.48}
{"smiles": "CCn1cnnc1CNC(=O)N1CCC(CN2CCCCCC2)CC1", "Mtb heat-shock": -6.801, "Mtb growth Cornell": -59.29, "LdMetRS": 18.05}
{"smiles": "CN(C)c1cc(CNC(=O)Nc2ccc(N3CCCC3)nc2)ccn1", "Mtb heat-shock": -0.3361, "LdMetRS": 15.71}
{"smiles": "O=C(CN1C(=O)CCC1=O)N1CCOCC1", "Mtb heat-shock": -25.74, "Mtb growth Cornell": -20.82, "LdMetRS": 0.6211}
{"smiles": "O=C1O[C@@H]2CN(Cc3ccncc3)C[C@@H]2N1CCCN1CCOCC1", "LdMetRS": 2.338}
{"smiles": "COCc1nn(C(C)C)c2c1CCN(Cc1cccs1)C2.O=C(O)C(F)(F)F", "Mtb heat-shock": 0.6668, "Mtb growth Cornell": 31.11}
{"smiles": "CC(C)(C)NC(=O)c1cnc(C(C)(C)C)s1", "Mtb heat-shock": 6.79, "Mtb growth Cornell": -15.33, "LdMetRS": 17.02}
{"smiles": "[H][C@@]12CCCCN(C)[C@]1([H])[C@@H](c1ccccc1)CCN2C(=O)c1cccnc1", "Mtb heat-shock": 7.896, "Mtb growth Cornell": -9.39}
{"smiles": "CCc1nc(CNC(C)(CO)C2CCCCC2)no1", "stereo": "centres unmarked", "Mtb heat-shock": -13.81, "Mtb growth Cornell": -3.144, "LdMetRS": 4.05}

Repeated from the top, 3 entries:

SMILES	Mtb heat-shock	Mtb growth Cornell	LdMetRS
CCc1nn(C)c2[nH]nc(NC(=O)c3cccnc3OC)c12	3.933%	17.67%	14.37%
Cc1nc(NC(=O)C(C)S(C)(=O)=O)sc1Cc1ccc(F)cc1 (centres unmarked)	-19.55%	-15.68%	-0.7732%
Cn1cc(CN2CC[C@H]3O[C@@H](COCc4cccnc4)CC[C@H]32)cn1	-	-	15.93%